Data: the supplement of paper PMC12889115
This is one part of the list. These are raw signals, not scaled to a control.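 In the initial screen, polymyxin B was used at a concentration that permeabilizes Salmonella's outer membrane but not its inner membrane. Maximum growth was set by DMSO wells with or without polymyxin B. Since plates varied, data were ranked per plate, and compounds giving the lowest OD600 advanced as hits.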

Tested on: Salmonella enterica serovar Typhimurium SL1344
Assay: bacterial growth OD600 after 18 h with compound and polymyxin B; higher = more bacterial growth (less inhibition)
Conditions: 50 µM, Mueller-Hinton broth

Row | Structure (SMILES) | bacterial growth OD600 (polymyxin B 1 µg/mL) | bacterial growth OD600 (polymyxin B 0.75 µg/mL)
1 | O=C1CC(NC2CSCCSC2)CN1CCc1ccc(F)cc1 (stereo not given) | 0.952 | 
2 | Cc1ccc2c(c1)CN(CCNC(=O)C1=CCCC1)CC(C)O2 (stereo not given) |  | 0.799
3 | COCC1CCN(C(=O)c2cc(COc3ccc(F)cc3Cl)on2)CC1 | 0.96 | 
4 | Cn1ccnc1CN1CCOC(CC2CCCCC2)C1 (stereo not given) |  | 0.859
5 | Cc1ccc(C)c(OCc2cc(C(=O)N3CCCC4(CCCN(C)C4)C3)no2)c1 (stereo not given) |  | 0.788
6 | Cc1nn(C)cc1CN1CCOc2ccc(C(O)C(c3ccccc3)c3ccccc3)cc2C1 (stereo not given) |  | 0.794
7 | Cc1cccc(NC(=O)CCC2CCN(S(=O)(=O)c3ccsc3)CC2)c1 | 1.13 | 
8 | CCn1cc(C(=O)NCc2cccnc2N2CCCCCCC2)cn1 |  | 0.955
9 | O=C(CCCc1ccccc1)Nc1cccc(N2CCC(N[C@@H]3CS(=O)(=O)C[C@H]3O)CC2)c1 |  | 0.814
10 | NC(=O)C1(C(=O)N2CCc3onc(-c4cccc5ccccc45)c3C2)CC1 |  | 0.777
11 | CSCC[C@H](NC(C)=O)C(=O)N1CCC(CCC(=O)Nc2cccc(C)c2)CC1 | 1.01 | 
12 | O=C1CCC(C(=O)N2CCC(OCc3ccccc3)CC2)CN1CCN1CCOCC1 (stereo not given) | 0.909 | 
13 | COc1ccc(C(=O)N2CCCC(C(=O)c3ccc(Cl)cc3C)C2)o1 (stereo not given) | 0.011 | 
14 | CCN1CCN(C(=O)c2cc(COc3cccc(C(F)(F)F)c3)[nH]n2)CC1 |  | 0.787
15 | COc1cccc(CN2CCN(Cc3cccc(F)c3F)CC2CCO)c1 (stereo not given) | 0.885 | 
16 | CCn1cc(CN2CCCC2C(=O)Nc2ccccc2Oc2cccnc2)c(C)n1 (stereo not given) |  | 0.86
17 | COc1ccc(C(=O)N(Cc2ccc(OCCc3scnc3C)c(OC)c2)[C@H]2CCCCNC2=O)c(OC)c1 |  | 0.788
18 | Cc1nc(CCNC(=O)C2CCC(=O)N(CCCN3CCOCC3)C2)nc2c1CCC2 (stereo not given) | 0.815 | 
19 | CCCc1cc(CNC(=O)c2ccc(N(C)C(C)C)nc2)on1 | 0.852 | 
20 | O=C(NCc1ccc(F)c(F)c1)c1cc(COc2c(F)cccc2F)on1 | 0.775 | 

One compound at a time, as listed above:
COCC1CCN(C(=O)c2cc(COc3ccc(F)cc3Cl)on2)CC1 is listed as bacterial growth OD600 (polymyxin B 1 µg/mL): 0.96
CSCC[C@H](NC(C)=O)C(=O)N1CCC(CCC(=O)Nc2cccc(C)c2)CC1 is listed as bacterial growth OD600 (polymyxin B 1 µg/mL): 1.01
